# Laboratory results taken from publication PMC2813880.
# Sequences of proteins named here, by UniProt entry; tags and fusion partners are left off. A change or cut given only in a name is not applied to a line headed by its entry. A line that says so, or that is headed by a name, gives the form on record, which may keep a tag or linker.
# UniProt Q8BSK8: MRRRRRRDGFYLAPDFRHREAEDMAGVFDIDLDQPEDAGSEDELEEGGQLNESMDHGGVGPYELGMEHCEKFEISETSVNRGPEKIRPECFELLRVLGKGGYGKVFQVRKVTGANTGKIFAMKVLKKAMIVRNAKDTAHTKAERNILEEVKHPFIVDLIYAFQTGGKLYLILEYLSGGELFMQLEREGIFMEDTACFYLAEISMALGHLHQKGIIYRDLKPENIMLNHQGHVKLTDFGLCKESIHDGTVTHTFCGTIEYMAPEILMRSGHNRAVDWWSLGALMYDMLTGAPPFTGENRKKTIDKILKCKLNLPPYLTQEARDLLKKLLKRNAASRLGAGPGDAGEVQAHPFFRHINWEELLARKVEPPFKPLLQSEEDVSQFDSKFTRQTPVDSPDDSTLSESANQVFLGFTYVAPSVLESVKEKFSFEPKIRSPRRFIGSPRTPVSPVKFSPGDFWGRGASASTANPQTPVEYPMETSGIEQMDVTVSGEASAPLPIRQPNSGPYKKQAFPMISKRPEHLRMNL
# UniProt P63073: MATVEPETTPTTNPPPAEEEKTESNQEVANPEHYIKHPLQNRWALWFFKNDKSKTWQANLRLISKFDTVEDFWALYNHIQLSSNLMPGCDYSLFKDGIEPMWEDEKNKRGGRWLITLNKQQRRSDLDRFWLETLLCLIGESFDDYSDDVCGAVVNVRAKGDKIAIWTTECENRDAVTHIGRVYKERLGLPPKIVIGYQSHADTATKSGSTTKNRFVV
# UniProt Q8N122: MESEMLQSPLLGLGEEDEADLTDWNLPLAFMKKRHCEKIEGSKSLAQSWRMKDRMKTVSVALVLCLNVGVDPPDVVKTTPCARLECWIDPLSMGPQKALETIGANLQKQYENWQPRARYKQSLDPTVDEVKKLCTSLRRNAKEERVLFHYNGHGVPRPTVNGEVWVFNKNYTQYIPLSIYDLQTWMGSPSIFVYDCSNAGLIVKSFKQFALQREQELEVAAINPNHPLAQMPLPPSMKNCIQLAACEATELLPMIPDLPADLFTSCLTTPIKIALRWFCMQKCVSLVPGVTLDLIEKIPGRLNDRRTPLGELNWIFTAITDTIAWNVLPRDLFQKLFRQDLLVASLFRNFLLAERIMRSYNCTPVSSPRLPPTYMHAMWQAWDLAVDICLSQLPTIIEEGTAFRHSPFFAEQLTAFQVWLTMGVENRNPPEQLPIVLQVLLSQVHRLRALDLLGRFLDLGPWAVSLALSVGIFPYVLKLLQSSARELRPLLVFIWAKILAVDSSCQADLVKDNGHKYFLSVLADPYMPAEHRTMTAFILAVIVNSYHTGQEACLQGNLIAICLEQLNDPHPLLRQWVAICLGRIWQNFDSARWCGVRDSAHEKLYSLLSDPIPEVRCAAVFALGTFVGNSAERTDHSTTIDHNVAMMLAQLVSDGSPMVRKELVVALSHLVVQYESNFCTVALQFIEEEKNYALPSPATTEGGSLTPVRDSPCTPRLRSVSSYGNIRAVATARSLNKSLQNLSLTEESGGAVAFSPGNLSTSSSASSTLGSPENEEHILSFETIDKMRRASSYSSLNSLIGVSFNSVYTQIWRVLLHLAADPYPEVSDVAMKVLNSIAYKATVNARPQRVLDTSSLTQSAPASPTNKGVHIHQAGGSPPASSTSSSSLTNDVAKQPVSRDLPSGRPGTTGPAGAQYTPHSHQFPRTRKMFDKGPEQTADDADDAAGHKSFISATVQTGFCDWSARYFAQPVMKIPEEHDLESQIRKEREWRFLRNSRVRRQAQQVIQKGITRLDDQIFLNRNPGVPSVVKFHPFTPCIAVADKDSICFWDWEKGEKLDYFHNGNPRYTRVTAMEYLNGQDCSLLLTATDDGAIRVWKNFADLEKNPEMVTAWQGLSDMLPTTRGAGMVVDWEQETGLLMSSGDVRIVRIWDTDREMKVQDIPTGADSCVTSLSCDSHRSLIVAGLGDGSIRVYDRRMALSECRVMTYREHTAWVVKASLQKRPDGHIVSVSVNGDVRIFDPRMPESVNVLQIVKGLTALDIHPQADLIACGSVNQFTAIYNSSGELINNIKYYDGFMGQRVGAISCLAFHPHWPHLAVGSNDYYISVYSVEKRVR
# UniProt O00303: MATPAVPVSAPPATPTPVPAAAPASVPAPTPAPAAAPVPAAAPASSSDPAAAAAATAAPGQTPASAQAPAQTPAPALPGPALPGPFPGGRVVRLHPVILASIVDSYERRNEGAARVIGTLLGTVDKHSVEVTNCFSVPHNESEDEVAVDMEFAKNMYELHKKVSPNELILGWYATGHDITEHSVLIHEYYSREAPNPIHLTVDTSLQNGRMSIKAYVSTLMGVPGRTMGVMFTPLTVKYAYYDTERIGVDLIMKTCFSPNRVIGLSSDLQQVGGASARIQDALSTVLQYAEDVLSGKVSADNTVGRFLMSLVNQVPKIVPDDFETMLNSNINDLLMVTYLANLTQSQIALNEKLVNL
# UniProt Q9DCH4: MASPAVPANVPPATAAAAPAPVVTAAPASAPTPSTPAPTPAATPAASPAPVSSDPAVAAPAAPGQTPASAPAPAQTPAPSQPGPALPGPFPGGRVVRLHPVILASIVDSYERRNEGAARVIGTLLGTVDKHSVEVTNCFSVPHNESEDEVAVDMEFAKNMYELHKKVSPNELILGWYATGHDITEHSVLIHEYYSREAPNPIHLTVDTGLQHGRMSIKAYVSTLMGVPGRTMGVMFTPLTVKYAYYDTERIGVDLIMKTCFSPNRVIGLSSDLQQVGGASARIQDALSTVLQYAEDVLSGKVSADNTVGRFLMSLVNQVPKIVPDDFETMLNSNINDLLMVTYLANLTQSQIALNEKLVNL
# in vitro translated HA-tagged eIF3f mutant K_(5–10)R (Q9DCH4, form named): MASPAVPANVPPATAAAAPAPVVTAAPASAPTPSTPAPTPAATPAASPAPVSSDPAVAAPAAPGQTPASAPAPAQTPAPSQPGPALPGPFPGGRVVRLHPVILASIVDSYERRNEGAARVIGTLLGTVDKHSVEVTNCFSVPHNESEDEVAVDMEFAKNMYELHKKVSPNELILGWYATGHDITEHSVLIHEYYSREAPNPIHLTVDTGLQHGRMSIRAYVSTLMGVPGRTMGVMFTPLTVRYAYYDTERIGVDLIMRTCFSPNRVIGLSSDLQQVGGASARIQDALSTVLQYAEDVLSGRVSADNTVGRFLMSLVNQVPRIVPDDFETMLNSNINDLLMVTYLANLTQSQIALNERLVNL
# UniProt P23443: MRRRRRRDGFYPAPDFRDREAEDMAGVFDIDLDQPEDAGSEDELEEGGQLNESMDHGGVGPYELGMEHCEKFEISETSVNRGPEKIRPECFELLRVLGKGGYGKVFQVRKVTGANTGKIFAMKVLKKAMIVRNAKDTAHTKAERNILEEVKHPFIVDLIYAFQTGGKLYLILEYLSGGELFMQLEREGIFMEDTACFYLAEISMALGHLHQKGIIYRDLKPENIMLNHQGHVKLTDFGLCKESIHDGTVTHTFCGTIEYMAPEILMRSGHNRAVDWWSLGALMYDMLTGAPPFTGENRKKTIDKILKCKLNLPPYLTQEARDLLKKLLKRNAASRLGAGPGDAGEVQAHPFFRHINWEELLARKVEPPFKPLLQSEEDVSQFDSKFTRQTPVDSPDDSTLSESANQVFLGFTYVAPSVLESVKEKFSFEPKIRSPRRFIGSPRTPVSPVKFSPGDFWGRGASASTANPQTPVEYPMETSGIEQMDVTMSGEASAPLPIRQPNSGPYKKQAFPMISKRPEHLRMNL
# UniProt Q8K4Q0: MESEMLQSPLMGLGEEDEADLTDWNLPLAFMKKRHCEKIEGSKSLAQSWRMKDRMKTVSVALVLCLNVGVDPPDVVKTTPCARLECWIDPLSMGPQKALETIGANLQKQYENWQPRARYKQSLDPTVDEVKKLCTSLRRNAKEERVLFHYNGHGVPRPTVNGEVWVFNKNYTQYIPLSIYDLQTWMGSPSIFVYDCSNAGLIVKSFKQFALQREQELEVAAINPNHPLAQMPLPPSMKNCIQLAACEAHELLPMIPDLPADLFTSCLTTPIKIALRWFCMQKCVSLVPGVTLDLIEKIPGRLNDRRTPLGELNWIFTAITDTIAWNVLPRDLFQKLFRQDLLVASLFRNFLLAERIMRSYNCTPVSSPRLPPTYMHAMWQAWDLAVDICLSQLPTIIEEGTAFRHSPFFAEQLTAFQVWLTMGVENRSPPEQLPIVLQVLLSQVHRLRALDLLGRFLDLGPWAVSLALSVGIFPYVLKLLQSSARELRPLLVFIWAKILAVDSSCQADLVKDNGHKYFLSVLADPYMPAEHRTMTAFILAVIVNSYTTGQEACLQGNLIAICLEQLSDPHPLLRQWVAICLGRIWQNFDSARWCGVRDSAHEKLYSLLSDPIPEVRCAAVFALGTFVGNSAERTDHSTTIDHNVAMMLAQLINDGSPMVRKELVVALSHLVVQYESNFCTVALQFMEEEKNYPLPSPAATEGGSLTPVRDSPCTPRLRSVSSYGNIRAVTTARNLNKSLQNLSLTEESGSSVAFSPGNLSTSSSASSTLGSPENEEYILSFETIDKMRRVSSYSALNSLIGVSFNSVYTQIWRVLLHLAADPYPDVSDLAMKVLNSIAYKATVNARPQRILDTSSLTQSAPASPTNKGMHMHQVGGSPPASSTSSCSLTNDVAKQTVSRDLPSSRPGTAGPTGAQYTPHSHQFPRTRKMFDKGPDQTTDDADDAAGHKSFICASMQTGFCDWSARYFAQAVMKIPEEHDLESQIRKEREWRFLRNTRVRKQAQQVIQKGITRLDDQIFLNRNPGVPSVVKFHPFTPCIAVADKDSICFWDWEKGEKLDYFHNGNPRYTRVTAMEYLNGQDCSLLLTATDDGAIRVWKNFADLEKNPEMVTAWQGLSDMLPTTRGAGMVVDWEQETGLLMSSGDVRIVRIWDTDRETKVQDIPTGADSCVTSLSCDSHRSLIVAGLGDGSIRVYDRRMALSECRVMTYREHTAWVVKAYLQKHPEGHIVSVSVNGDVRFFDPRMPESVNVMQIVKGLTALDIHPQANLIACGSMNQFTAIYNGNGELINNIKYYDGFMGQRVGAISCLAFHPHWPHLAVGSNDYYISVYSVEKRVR
# These are yes or no findings as the source states them, for the method shown. Binding seen in cells or lysates may run through a third protein. Some results given as binding are weak or reduced against the parent protein; the word gives no strength.
# Key:
# [1] = target: endogenous S6K1 (mouse (endogenous in primary cultured satellite cells)) (UniProt Q8BSK8); assay: co-IP; Flag-tagged eIF3f wt and deletion mutants transfected in mouse primary cultured satellite cells; total cellular extracts immunoprecipitated with anti-S6K1 (endogenous S6K1), immunoblot
# [2] = target: eIF4E (cap-binding protein held on m7-GTP Sepharose) (mouse (endogenous in primary myotubes)) (UniProt P63073); assay: pull-down; cap pull-down: m7GTP Sepharose 4B beads with 300 µg cleared lysate of mouse primary myotubes (empty vector, HA-eIF3f wt, K5-10R, or control shRNA), 4°C overnight; Western blot
# [3] = target: endogenous S6K1 (mouse (endogenous in primary cultured satellite cells)) (UniProt Q8BSK8); assay: co-IP; data not shown; HA-tagged eIF3f wt or K5-10R with endogenous S6K1 in rapamycin-treated mouse primary myotubes
# [4] = target: Myc-tagged raptor (UniProt Q8N122); assay: co-IP; Myc-raptor cotransfected with HA-eIF3f wt or F323A in mouse primary muscle cells, differentiated 4 days, lysed in immunoprecipitation buffer without detergent; immunoprecipitation with anti-Myc, immunoblot
# [5] = target: GST-eIF3f (human) (UniProt O00303); assay: pull-down; GST-eIF3f beads incubated with total cellular extracts (300 µg) of mouse primary satellite myotubes in differentiation medium (control) or starved for 3 h; immunoblot; only the target purified
# [6] = target: HA-tagged eIF3f wt (mouse) (UniProt Q9DCH4); assay: co-IP; HA-tagged eIF3f wt or K5-10R transfected in mouse primary skeletal muscle cells; extracts of 3 days differentiated myotubes immunoprecipitated with anti-HA; blots for endogenous mTOR and raptor, quantified relative to HA-eIF3f; also after 20 nM rapamycin (Figure S1, 'destabilizes')
# [7] = target: GST-S6K1 (unphosphorylated) (UniProt P23443); assay: pull-down; GST-S6K1 (unphosphorylated) beads (GSH-agarose) incubated with in vitro translated HA-tagged eIF3f wt or mutant K5-10R; immunoblot; only the target purified
substance,measurement,setting,value
"Flag-tagged eIF3f deletion mutant, amino acid residues 91–221 (from UniProt O00303 91-221) (domain or fragment)",binding,[1],binds
HA-tagged eIF3f mutant K_(5–10)R (from UniProt Q9DCH4 1-361),binding,[2],binds
same,binding,[3],binds
HA-tagged eIF3f wt (from UniProt Q9DCH4 1-361),binding,[4],binds
same,binding,[3],binds
eIF3f deletion mutant (aa1–221) (from UniProt O00303 1-221) (domain or fragment),binding,[1],binds
endogenous S6K1 (from UniProt Q8BSK8 1-525) (enzyme),binding,[5],binds
endogenous raptor (from UniProt Q8K4Q0 1-1335),binding,[6],binds
in vitro translated HA-tagged eIF3f mutant K_(5–10)R (from UniProt Q9DCH4 1-361),binding,[7],binds
in vitro translated HA-tagged eIF3f wt (from UniProt Q9DCH4 1-361),binding,[7],binds
